Laboratory results taken from publication doi:10.1101/2024.07.17.603870.
Where two headings read alike, the source gives them in different places. These are yes or no findings as the source states them, for the method shown. Some results given as binding are weak or reduced against the parent protein; the word gives no strength. Tags and fused reporters may be left off the sequences shown.

Sequences of proteins named here, by UniProt entry; tags and fusion partners are left off.
UniProt P49597: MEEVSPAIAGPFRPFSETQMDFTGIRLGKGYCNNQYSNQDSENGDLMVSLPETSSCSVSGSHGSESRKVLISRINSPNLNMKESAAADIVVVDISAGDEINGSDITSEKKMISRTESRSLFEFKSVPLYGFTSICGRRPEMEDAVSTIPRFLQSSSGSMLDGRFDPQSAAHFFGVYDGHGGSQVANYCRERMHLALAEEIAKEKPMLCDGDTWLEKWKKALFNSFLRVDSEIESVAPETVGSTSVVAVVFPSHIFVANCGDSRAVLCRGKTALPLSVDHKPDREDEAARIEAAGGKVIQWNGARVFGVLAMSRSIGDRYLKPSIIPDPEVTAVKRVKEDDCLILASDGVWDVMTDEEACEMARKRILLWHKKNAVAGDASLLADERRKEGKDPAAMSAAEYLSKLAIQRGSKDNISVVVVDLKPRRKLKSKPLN
UniProt O04719: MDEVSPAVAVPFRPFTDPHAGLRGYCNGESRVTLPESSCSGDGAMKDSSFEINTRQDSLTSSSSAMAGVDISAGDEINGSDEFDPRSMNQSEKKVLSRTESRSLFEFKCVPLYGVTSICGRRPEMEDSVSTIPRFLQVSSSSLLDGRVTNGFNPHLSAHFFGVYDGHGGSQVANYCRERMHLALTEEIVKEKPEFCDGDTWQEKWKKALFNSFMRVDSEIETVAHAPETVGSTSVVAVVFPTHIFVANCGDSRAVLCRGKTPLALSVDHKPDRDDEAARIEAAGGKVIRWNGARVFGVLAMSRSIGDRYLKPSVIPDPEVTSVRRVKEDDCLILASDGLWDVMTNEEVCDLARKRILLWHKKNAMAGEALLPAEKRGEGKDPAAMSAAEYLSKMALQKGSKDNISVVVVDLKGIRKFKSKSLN

B1: ABA … …ON 1 (AHG1), two-hybrid fusion (enzyme, UniProt Q9FLI3 1-416)
chain: MTEIYRTISTGRGDDVSPTKCRERRRRRIEMRRQAAVFGEPSSSRNRDRTDMEVYSSFDVPLRKQARRSEIGGLPADIGGFLAPPAASSCQKSEAPVWKGEETEDEPLYGIVSVMGRSRKMEDSVTVKPNLCKPEVNRQRPVHFFAVYDGHGGSQVSTLCSTTMHTFVKEELEQNLEEEEEGSENDVVERKWRGVMKRSFKRMDEMATSTCVCGTSVPLCNCDPREAAISGSTAVTAVLTHDHIIVANTGDSRAVLCRNGMAIPLSNDHKPDRPDERARIEAAGGRVLVVDGARVEGILATSRAIGDRYLKPMVAWEPEVTFMRRESGDECLVLASDGLWDVLSSQLACDIARFCLREETPSSLDLNRMAQEDDNDGEQNPSRSVLAATLLTRLALGRQSSDNISVVVIDLKNSSQ
B2: ABA … …ON 3 (AHG3), two-hybrid fusion, P49598 1-399 (enzyme)
chain: MAGICCGVVGETEPAAPVDSTSRASLRRRLDLLPSIKIVADSAVAPPLENCRKRQKRETVVLSTLPGNLDLDSNVRSENKKARSAVTNSNSVTEAESFFSDVPKIGTTSVCGRRRDMEDAVSIHPSFLQRNSENHHFYGVFDGHGCSHVAEKCRERLHDIVKKEVEVMASDEWTETMVKSFQKMDKEVSQRECNLVVNGATRSMKNSCRCELQSPQCDAVGSTAVVSVVTPEKIIVSNCGDSRAVLCRNGVAIPLSVDHKPDRPDELIRIQQAGGRVIYWDGARVLGVLAMSRAIGDNYLKPYVIPDPEVTVTDRTDEDECLILASDGLWDVVPNETACGVARMCLRGAGAGDDSDAAHNACSDAALLLTKLALARQSSDNVSVVVVDLRKRRNNQASS
B3: HAB2, two-hybrid fusion (enzyme, UniProt Q9LNP9 1-511)
chain: MEEISPAVALTLGLANTMCDSGISSTFDISELENVTDAADMLCNQKRQRYSNGVVDCIMGSVSEEKTLSEVRSLSSDFSVTVQESEEDEPLVSDATIISEGLIVVDARSEISLPDTVETDNGRVLATAIILNETTIEQVPTAEVLIASLNHDVNMEVATSEVVIRLPEENPNVARGSRSVYELECIPLWGTISICGGRSEMEDAVRALPHFLKIPIKMLMGDHEGMSPSLPYLTSHFFGVYDGHGGAQVADYCHDRIHSALAEEIERIKEELCRRNTGEGRQVQWEKVFVDCYLKVDDEVKGKINRPVVGSSDRMVLEAVSPETVGSTAVVALVCSSHIIVSNCGDSRAVLLRGKDSMPLSVDHKPDREDEYARIEKAGGKVIQWQGARVSGVLAMSRSIGDQYLEPFVIPDPEVTFMPRAREDECLILASDGLWDVMSNQEACDFARRRILAWHKKNGALPLAERGVGEDQACQAAAEYLSKLAIQMGSKDNISIIVIDLKAQRKFKTRS
B4: HAI1, two-hybrid fusion (enzyme, UniProt Q9FIF5 1-413)
chain: MAEICYENETMMIETTATVVKKATTTTRRRERSSSQAARRRRMEIRRFKFVSGEQEPVFVDGDLQRRRRRESTVAASTSTVFYETAKEVVVLCESLSSTVVALPDPEAYPKYGVASVCGRRREMEDAVAVHPFFSRHQTEYSSTGFHYCGVYDGHGCSHVAMKCRERLHELVREEFEADADWEKSMARSFTRMDMEVVALNADGAAKCRCELQRPDCDAVGSTAVVSVLTPEKIIVANCGDSRAVLCRNGKAIALSSDHKPDRPDELDRIQAAGGRVIYWDGPRVLGVLAMSRAIGDNYLKPYVISRPEVTVTDRANGDDFLILASDGLWDVVSNETACSVVRMCLRGKVNGQVSSSPEREMTGVGAGNVVVGGGDLPDKACEEASLLLTRLALARQSSDNVSVVVVDLRRDT
B5: HAI2, two-hybrid fusion (enzyme, UniProt Q9LNW3 1-442)
chain: MADICYEDETSACESRPLWSSRKWRIGVQRFRMSPSEMNPTASTTEEEDKSEGIYNKRNKQEEYDFMNCASSSPSQSSPEEESVSLEDSDVSISDGNSSVNDVAVIPSKKTVKETDLRPRYGVASVCGRRRDMEDAVALHPSFVRKQTEFSRTRWHYFGVYDGHGCSHVAARCKERLHELVQEEALSDKKEEWKKMMERSFTRMDKEVVRWGETVMSANCRCELQTPDCDAVGSTAVVSVITPEKIIVANCGDSRAVLCRNGKAVPLSTDHKPDRPDELDRIQEAGGRVIYWDGARVLGVLAMSRAIGDNYLKPYVTSEPEVTVTDRTEEDEFLILATDGLWDVVTNEAACTMVRMCLNRKSGRGRRRGETQTPGRRSEEEGKEEEEKVVGSRKNGKRGEITDKACTEASVLLTKLALAKHSSDNVSVVVIDLRRRRKRHVA

Tests used:
Experiment in all cases: two-hybrid
[1] = target: T1, ABSCISIC ACID … FIVE BINDING PROTEIN 1 (AFP1), BD fusion (Arabidopsis) (UniProt Q9LQ98)
T1 sequence: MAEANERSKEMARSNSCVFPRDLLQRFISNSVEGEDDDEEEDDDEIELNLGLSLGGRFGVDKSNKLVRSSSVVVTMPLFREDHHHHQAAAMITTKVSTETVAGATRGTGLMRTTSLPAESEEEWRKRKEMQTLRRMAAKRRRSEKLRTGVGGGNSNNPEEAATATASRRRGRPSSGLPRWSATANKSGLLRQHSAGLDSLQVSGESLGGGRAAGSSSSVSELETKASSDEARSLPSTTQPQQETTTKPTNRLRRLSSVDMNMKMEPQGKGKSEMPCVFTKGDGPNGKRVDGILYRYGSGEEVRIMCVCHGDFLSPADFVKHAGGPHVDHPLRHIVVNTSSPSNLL

[2] = target: T2, ABSCISIC ACID … FIVE BINDING PROTEIN 2 (AFP2), BD fusion (Arabidopsis) (UniProt Q9LMX5)
T2 sequence: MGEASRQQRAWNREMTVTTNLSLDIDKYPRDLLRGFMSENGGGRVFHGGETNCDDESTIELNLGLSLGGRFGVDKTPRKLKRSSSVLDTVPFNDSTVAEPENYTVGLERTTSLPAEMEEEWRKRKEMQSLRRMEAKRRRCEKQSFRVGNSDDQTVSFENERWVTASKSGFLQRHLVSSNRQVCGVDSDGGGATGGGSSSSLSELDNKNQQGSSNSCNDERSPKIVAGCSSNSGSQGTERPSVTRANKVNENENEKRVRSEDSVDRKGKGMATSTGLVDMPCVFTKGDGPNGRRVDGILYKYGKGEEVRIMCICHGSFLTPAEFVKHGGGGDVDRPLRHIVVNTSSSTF

[3] = target: T3, ABSCISIC ACID … FIVE BINDING PROTEIN 3 (AFP3), BD fusion (Arabidopsis) (UniProt Q94F39)
T3 sequence: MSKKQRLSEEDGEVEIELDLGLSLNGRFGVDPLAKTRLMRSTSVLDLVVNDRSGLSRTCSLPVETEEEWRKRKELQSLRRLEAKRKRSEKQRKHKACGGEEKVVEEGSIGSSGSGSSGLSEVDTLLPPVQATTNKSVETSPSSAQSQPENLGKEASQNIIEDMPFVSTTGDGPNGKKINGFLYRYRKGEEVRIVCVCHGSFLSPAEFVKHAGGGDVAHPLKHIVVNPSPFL

[4] = target: T4, ABSCISIC ACID … FIVE BINDING PROTEIN 4 (AFP4), BD fusion (Arabidopsis) (UniProt Q9S7Z2)
T4 sequence: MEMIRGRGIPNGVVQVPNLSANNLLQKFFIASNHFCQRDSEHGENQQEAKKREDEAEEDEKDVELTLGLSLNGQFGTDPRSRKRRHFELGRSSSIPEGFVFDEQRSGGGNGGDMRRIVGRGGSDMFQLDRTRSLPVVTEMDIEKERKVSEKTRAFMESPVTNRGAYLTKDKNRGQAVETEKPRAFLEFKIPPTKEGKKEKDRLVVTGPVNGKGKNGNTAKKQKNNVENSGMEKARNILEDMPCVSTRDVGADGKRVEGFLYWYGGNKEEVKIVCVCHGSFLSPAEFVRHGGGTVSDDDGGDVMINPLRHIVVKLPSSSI

[5] = target: T5, SnRK2.6, two-hybrid fusion (Arabidopsis) (UniProt Q940H6)
T5 sequence: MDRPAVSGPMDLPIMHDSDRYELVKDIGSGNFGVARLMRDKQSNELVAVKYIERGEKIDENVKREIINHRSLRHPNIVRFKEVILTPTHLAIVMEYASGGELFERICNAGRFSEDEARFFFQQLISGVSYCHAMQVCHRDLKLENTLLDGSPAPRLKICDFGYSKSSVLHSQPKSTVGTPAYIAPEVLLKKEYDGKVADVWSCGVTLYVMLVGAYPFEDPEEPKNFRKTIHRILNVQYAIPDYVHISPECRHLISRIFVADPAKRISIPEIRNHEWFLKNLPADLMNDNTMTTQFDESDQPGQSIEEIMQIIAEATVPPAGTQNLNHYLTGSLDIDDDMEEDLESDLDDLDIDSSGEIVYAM

[6] = target: T1, ABSCISIC ACID … FIVE BINDING PROTEIN 1 (AFP1), BD fusion (Arabidopsis); remark: listed apart in the source
[7] = target: T2, ABSCISIC ACID … FIVE BINDING PROTEIN 2 (AFP2), BD fusion (Arabidopsis); remark: listed apart in the source
[8] = target: T3, ABSCISIC ACID … FIVE BINDING PROTEIN 3 (AFP3), BD fusion (Arabidopsis); remark: listed apart in the source
[9] = target: T4, ABSCISIC ACID … FIVE BINDING PROTEIN 4 (AFP4), BD fusion (Arabidopsis); remark: listed apart in the source
[10] = target: T6, ABSCISIC ACID … FIVE BINDING PROTEIN 1 (AFP1), BD fusion (Arabidopsis), Q9LQ98; conditions: remark: other sources report otherwise
T6 chain: T1 sequence

[11] = target: T7, ABSCISIC ACID … FIVE BINDING PROTEIN 2 (AFP2), BD fusion (Arabidopsis), Q9LMX5; conditions: remark: other sources report otherwise
T7 chain: T2 sequence

[12] = target: T8, ABSCISIC ACID … FIVE BINDING PROTEIN 3 (AFP3), BD fusion (Arabidopsis), Q94F39; conditions: remark: other sources report otherwise
T8 chain: T3 sequence

[13] = target: T9, ABSCISIC ACID … FIVE BINDING PROTEIN 4 (AFP4), BD fusion (Arabidopsis), Q9S7Z2; conditions: remark: other sources report otherwise
T9 chain: T4 sequence

Molecule	binding [6]	binding [7]	binding [8]	binding [9]	further results
ABI1, two-hybrid fusion (from UniProt P49597 1-434) (enzyme)	–	–	–	–	binding [1]: no binding; binding [2]: no binding; binding [3]: no binding; binding [4]: no binding
ABI2, two-hybrid fusion (from UniProt O04719 1-423) (enzyme)	–	–	–	–	binding [1]: no binding; binding [2]: no binding; binding [3]: no binding; binding [4]: no binding; binding [5]: binds
B1	binds	binds	binds	binds	–
B2	–	–	–	–	binding [10]: no binding; binding [11]: no binding; binding [12]: no binding; binding [13]: no binding
B3	no binding	no binding	no binding	no binding	–
B4	no binding	no binding	no binding	no binding	–
B5	no binding	no binding	no binding	no binding	–
